# Some of the results follow. Further columns of the screen follow, without active or inactive calls. Compounds called inactive in the main read-out are mostly missing here. Words in brackets tell the shape of the fitted curve; partial curves, single points and poor fits give uncertain potencies.
# Experiment: qHTS Assay for Lipid Storage Modulators in Drosophila S3 Cells;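 for cell number change: cells counted by Cell Tracker Red CMTPX staining in the red channel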
# Conditions: BODIPY lipid droplet fluorescence, 18-24 h; for cell number change: measured here: cell count max response, cells fed with added oleic acid
# Summary of the method: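 Drosophila S3 cells loaded with oleic acid (400 uM, as added) and compounds at several concentrations; lipid droplets imaged by 488-nm laser-scanning cytometry, 500–530 nm intensity and object ratio to cell channel. Percent activity normalized to 20 uM Triacsin C.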
# [1] = measured here: cell number channel AC50, cells fed with added oleic acid
# [2] = measured here: lipid fluorescence (Fed channel) AC50, cells fed with added oleic acid
Structure (SMILES),cell number change [%],AC50 [1],AC50 [2]
O=C(CSC(=S)N1CCCC1)N1CCN(S(=O)(=O)c2ccccc2F)CC1,22.8,,
CCOc1ccc(S(=O)(=O)NCCC(=O)OCC(=O)c2ccc(NC(C)=O)cc2)cc1,2.6,"0.146 µM [falling, full curve, poor fit]","0.13 µM [falling, full curve, poor fit]"
Cn1nccc1C(=O)OCC(=O)Nc1ccccc1Cl,-24.2,,"4.11 µM [falling, full curve]"
CCOc1cc(/C=C2\SC(=S)N(NC(=O)c3cccnc3)C2=O)ccc1O,14.6,,
COc1ccc(S(=O)(=O)NCC2CCCN(Cc3cccnc3)C2)cc1 (stereo not drawn),32.4,"0.0651 µM [rising, full curve, poor fit]","0.231 µM [rising, full curve, poor fit]"
Cc1cccc(NC(=O)CSc2nc(C)c(CC(=O)c3ccc(Br)cc3)c(C)c2C#N)c1C,7.36,,"3.66 µM [rising, partial curve]"
O=C(NCCCC(=O)N1CCOCC1)c1cccnc1,-4.27,,
Cc1ccc(C)c(NC(=O)/C(C#N)=C/c2cn(CC(=O)NCc3ccco3)c3ccccc23)c1,-11.9,,"9.2 µM [falling, partial curve, poor fit]"
O=C(NCC1CCCO1)c1ccc2c(c1)C(=O)N(c1cccc([N+](=O)[O-])c1)C2=O (stereo not drawn),,,"29.1 µM [falling, single point]"
CC1=CC(C)(C)N2C(=O)C3(SCC(=O)N3c3ccc(O)cc3)c3cc(C)cc1c32 (stereo not drawn),-23.8,,"0.411 µM [rising, full curve]"
CC(OC(=O)c1nc(Cl)ccc1Cl)C(=O)Nc1ccc2c(c1)OCCO2 (stereo not drawn),3.21,,
CCCCN(C(=O)CSCC(=O)Nc1ccc(OC)cc1)c1c(N)n(CCC)c(=O)[nH]c1=O,-13.4,,"0.0058 µM [falling, full curve, poor fit]"
CC1CCCN(C(=O)c2ccc3c(c2)OCO3)C1 (stereo not drawn),-13.1,,"2.31 µM [rising, single point]"
Cc1c(C(=O)N2CCOCC2)[nH]c2ccc(OCc3ccccc3)cc12,-21,,
O=C(Nc1c2c(nn1-c1ccc(Cl)cc1)CS(=O)(=O)C2)c1ccc2c(c1)OCO2,,"6.51 µM [rising, single point]","6.51 µM [rising, partial curve, poor fit]"
CN1C[C@@H]2C(c3ccccc3)C3(c4cccnc4)CC2(C3)[C@H]1c1ccccc1 (stereo partly drawn),19.5,,"9.2 µM [rising, partial curve, poor fit]"
CCCC(=O)N1CCN(c2nc3ccc(Br)cc3s2)CC1,4.25,,
CSCC[C@H](NC(=O)OC(C)(C)C)c1nnc(SCc2ccc(F)cc2)o1,42.8,"29.1 µM [rising, single point]","18.4 µM [rising, partial curve]"
Cc1nnc(SCC(=O)Nc2c(Cl)cccc2Cl)n(N)c1=O,-25.3,,
CC(C)Sc1snnc1-c1ccccc1,16.1,,"0.13 µM [rising, full curve, poor fit]"

# An excerpt taken from the entries so far, for reference:
Structure (SMILES),cell number change [%],AC50 [1],AC50 [2]
CC1=CC(C)(C)N2C(=O)C3(SCC(=O)N3c3ccc(O)cc3)c3cc(C)cc1c32 (stereo not drawn),-23.8,,"0.411 µM [rising, full curve]"
CC(OC(=O)c1nc(Cl)ccc1Cl)C(=O)Nc1ccc2c(c1)OCCO2 (stereo not drawn),3.21,,
CCCCN(C(=O)CSCC(=O)Nc1ccc(OC)cc1)c1c(N)n(CCC)c(=O)[nH]c1=O,-13.4,,"0.0058 µM [falling, full curve, poor fit]"

# Further compounds:

Structure (SMILES),cell number change [%],AC50 [1],AC50 [2]
O=S(=O)(NCc1ccc(F)cc1)c1cc(Br)ccc1Br,-27.7,"2.59 µM [falling, single point]",
CCOC(=O)c1oc2ccc(S(=O)(=O)n3nc(-c4ccc(Cl)cc4)cc3N)cc2c1C,-17.9,,
COc1ccc(NC(=O)CCNC(=O)c2ccco2)cc1S(=O)(=O)N(C)C,2.94,,"29.1 µM [rising, single point]"
N=C1C(c2nc3ccccc3s2)=C(O)CN1NC(=O)c1ccc([N+](=O)[O-])cc1,-1.24,,
N=c1c2c(n(Cc3ccc(Cl)c(Cl)c3)c3c1CCC3)CCCC2,-70.2,"14.6 µM [falling, partial curve]","13 µM [falling, partial curve]"
COc1cc(/C=N\NC(=O)c2sc(N)nc2C)cc(OC)c1OC,-14.8,"0.092 µM [falling, full curve, poor fit]","29.1 µM [rising, single point]"
CCn1c(CNc2nc(-c3ccccc3)cs2)nnc1SCC(=O)NCc1ccccc1,,,"23.1 µM [falling, partial curve, poor fit]"
O=S(=O)(c1ccc(F)cc1)N1CCC(c2nc3ccccc3[nH]2)CC1,5.13,,
COC(=O)c1ccccc1NC(=S)NC(=O)CC(C)C,-24.6,,
Oc1ccc(-c2nccc(-c3ccc(Cl)cc3Cl)n2)cc1,-36.2,,
Cc1cc(C)nc(N/N=C/c2ccc3c(c2)OCCO3)n1,109,"0.651 µM [rising, single point]",
Cc1ccc(CNC(=O)Cc2ccc(-n3cccc3)cc2)cc1,-6.01,,"0.651 µM [falling, single point]"
O=C(COC(=O)c1ccccc1-n1cnnn1)c1ccc(F)cc1,-17.6,,"0.326 µM [rising, partial curve, poor fit]"
O=C(CC(=O)NC1CCCCC1)N/N=C/c1ccccc1Cl,-34.5,"18.4 µM [falling, single point]","25.9 µM [falling, single point]"
CCC(=O)Nc1ccc(C(=O)CN2C(=O)NC3(CCOc4ccccc43)C2=O)cc1 (stereo not drawn),9.14,,"9.2 µM [rising, single point]"
O=C(Cn1nnc(-c2cccc(C(F)(F)F)c2)n1)NC(=O)NCc1ccco1,-42.7,"20.6 µM [falling, single point]","18.4 µM [falling, single point]"
C/C=C\C(=O)Nc1cccc(C2=NOC3(C2)C[C@H](C(N)=O)N(C(=O)/C=C/CC)C3)c1 (stereo partly drawn),-41.2,"29.1 µM [falling, single point]","25.9 µM [falling, partial curve]"
CC(Oc1ccc2c(-c3ccccc3)cc(=O)oc2c1)C(=O)NCC(O)c1ccccc1 (stereo not drawn),27.1,,"29.1 µM [rising, single point]"
COc1cc(Cl)c(C)cc1NC(=O)CC1SC(N2CCOCC2)=NC1=O (stereo not drawn),-46,"29.1 µM [falling, single point]","13 µM [rising, partial curve]"
